# Measured values: the supplement of paper PMC8728848
# The list shows a part of the results.
# B1: Epa8 (Candida glabrata) (protein)
# chain: MGSSHHHHHHSSGLVPRGSHMASSRALSDYPLGCSPLLGTKLTPGLSMELYEYPLDNHGIGPHCWDPAYLNPEYPRTGFESHKLIGTAQNVMSLNFEHRTQDCHVEFSNLPASFNFPDQITLTNFTMLLYGYFKPKESGRYRFHMEADDLLLMNLGAGNAFDCCAHEATRNNLGDYIAYDIWAGTRKDVEVFLEKEVFYPLRLFFNNRDGRAALDFSYYLNGATEPGTDIPELLFSLPDGESCPAYI
# Legend:
# Assay in all cases: glycan array binding signal (z-score within array); higher = stronger binding
# Details in all cases: glycan notation: IUPAC condensed, linker removed
# [1] = target: GlcNAc(a1-6)Gal(b1-4)GlcNAc
# Summary of the method: (§1)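 Glycan array data were curated from 3228 arrays in the Consortium for Functional Glycomics database and kept only where the protein sequence was available. Glycan names were converted to IUPAC-condensed notation, and columns mapping to the same glycan were averaged. The binding signal is a within-array Z-score, averaged across arrays of the same protein sequence at different concentrations or buffers and across linkers. Negative Z-scores can be read as non-binding.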
# [2] = target: GlcNAc(b1-2)Gal(b1-3)GalNAc
# Summary of the method: as §1
# [3] = target: GlcNAc(b1-2)Man(a1-3)[GlcNAc(b1-2)Man(a1-6)]Man(b1-4)GlcNAc(b1-4)GlcNAc
# Summary of the method: as §1
# [4] = target: GlcNAc(b1-2)Man(a1-3)[GlcNAc(b1-2)Man(a1-6)]Man(b1-4)GlcNAc(b1-4)[Fuc(a1-6)]GlcNAc
# Summary of the method: as §1
# [5] = target: GlcNAc(b1-2)Man(a1-3)[GlcNAc(b1-4)][GlcNAc(b1-2)Man(a1-6)]Man(b1-4)GlcNAc(b1-4)GlcNAc
# Summary of the method: as §1
# [6] = target: GlcNAc(b1-2)Man(a1-3)[GlcNAc(b1-4)][GlcNAc(b1-2)Man(a1-6)]Man(b1-4)GlcNAc(b1-4)[Fuc(a1-6)]GlcNAc
# Summary of the method: as §1
# [7] = target: GlcNAc(b1-2)[GlcNAc(b1-4)]Man(a1-3)[GlcNAc(b1-2)Man(a1-6)]Man(b1-4)GlcNAc(b1-4)GlcNAc
# Summary of the method: as §1
# [8] = target: GlcNAc(b1-2)[GlcNAc(b1-4)]Man(a1-3)[GlcNAc(b1-4)][GlcNAc(b1-2)Man(a1-6)]Man(b1-4)GlcNAc(b1-4)GlcNAc
# Summary of the method: as §1
# [9] = target: GlcNAc(b1-2)[GlcNAc(b1-4)]Man(a1-3)[GlcNAc(b1-4)][GlcNAc(b1-2)[GlcNAc(b1-6)]Man(a1-6)]Man(b1-4)GlcNAc(b1-4)GlcNAc
# Summary of the method: as §1
# [10] = target: GlcNAc(b1-2)[GlcNAc(b1-4)]Man(a1-3)[GlcNAc(b1-4)][GlcNAc(b1-2)[GlcNAc(b1-6)]Man(a1-6)]Man(b1-4)GlcNAc(b1-4)[Fuc(a1-6)]GlcNAc
# Summary of the method: as §1
# [11] = target: GlcNAc(b1-2)[GlcNAc(b1-6)]Man(a1-6)[GlcNAc(b1-2)Man(a1-3)]Man(b1-4)GlcNAc(b1-4)GlcNAc
# Summary of the method: as §1
# [12] = target: GlcNAc(b1-2)[GlcNAc(b1-6)]Man(a1-6)[GlcNAc(b1-2)Man(a1-3)]Man(b1-4)GlcNAc(b1-4)[Fuc(a1-6)]GlcNAc
# Summary of the method: as §1
# [13] = target: GlcNAc(b1-2)[GlcNAc(b1-6)]Man(a1-6)[GlcNAc(b1-4)][GlcNAc(b1-2)Man(a1-3)]Man(b1-4)GlcNAc(b1-4)GlcNAc
# Summary of the method: as §1
# GlcNAc(b1-3)Fuc = target: GlcNAc(b1-3)Fuc
# Summary of the method: as §1
# GlcNAc(b1-3)Gal = target: GlcNAc(b1-3)Gal
# Summary of the method: as §1
# [14] = target: GlcNAc(b1-3)Gal(b1-3)GalNAc
# Summary of the method: as §1
# GlcNAc(b1-3)Gal(b1-4)Glc = target: GlcNAc(b1-3)Gal(b1-4)Glc
# Summary of the method: as §1
# [15] = target: GlcNAc(b1-3)Gal(b1-4)GlcNAc
# Summary of the method: as §1
# [16] = target: GlcNAc(b1-3)Gal(b1-4)GlcNAc(b1-2)Man(a1-3)[GlcNAc(b1-3)Gal(b1-4)GlcNAc(b1-2)Man(a1-6)]Man(b1-4)GlcNAc(b1-4)GlcNAc
# Summary of the method: as §1
# [17] = target: GlcNAc(b1-3)Gal(b1-4)GlcNAc(b1-2)Man(a1-3)[GlcNAc(b1-3)Gal(b1-4)GlcNAc(b1-2)Man(a1-6)]Man(b1-4)GlcNAc(b1-4)[Fuc(a1-6)]GlcNAc
# Summary of the method: as §1
# [18] = target: GlcNAc(b1-3)Gal(b1-4)GlcNAc(b1-2)[GlcNAc(b1-3)Gal(b1-4)GlcNAc(b1-6)]Man(a1-6)[GlcNAc(b1-3)Gal(b1-4)GlcNAc(b1-2)Man(a1-3)]Man(b1-4)GlcNAc(b1-4)GlcNAc
# Summary of the method: as §1
# [19] = target: GlcNAc(b1-3)Gal(b1-4)GlcNAc(b1-3)Gal(b1-4)GlcNAc
# Summary of the method: as §1
# [20] = target: GlcNAc(b1-3)Gal(b1-4)GlcNAc(b1-3)Gal(b1-4)GlcNAc(b1-2)Man(a1-3)[GlcNAc(b1-3)Gal(b1-4)GlcNAc(b1-3)Gal(b1-4)GlcNAc(b1-2)Man(a1-6)]Man(b1-4)GlcNAc(b1-4)GlcNAc
# Summary of the method: as §1
# [21] = target: GlcNAc(b1-3)Gal(b1-4)GlcNAc(b1-3)Gal(b1-4)GlcNAc(b1-2)Man(a1-3)[GlcNAc(b1-3)Gal(b1-4)GlcNAc(b1-3)Gal(b1-4)GlcNAc(b1-2)Man(a1-6)]Man(b1-4)GlcNAc(b1-4)[Fuc(a1-6)]GlcNAc
# Summary of the method: as §1
# [22] = target: GlcNAc(b1-3)Gal(b1-4)GlcNAc(b1-3)Gal(b1-4)GlcNAc(b1-2)[GlcNAc(b1-3)Gal(b1-4)GlcNAc(b1-3)Gal(b1-4)GlcNAc(b1-6)]Man(a1-6)[GlcNAc(b1-3)Gal(b1-4)GlcNAc(b1-3)Gal(b1-4)GlcNAc(b1-2)Man(a1-3)]Man(b1-4)GlcNAc(b1-4)[Fuc(a1-6)]GlcNAc
# Summary of the method: as §1
# [23] = target: GlcNAc(b1-3)Gal(b1-4)GlcNAc(b1-3)Gal(b1-4)GlcNAc(b1-3)Gal(b1-4)GlcNAc(b1-2)Man(a1-3)[GlcNAc(b1-3)Gal(b1-4)GlcNAc(b1-3)Gal(b1-4)GlcNAc(b1-3)Gal(b1-4)GlcNAc(b1-2)Man(a1-6)]Man(b1-4)GlcNAc(b1-4)GlcNAc
# Summary of the method: as §1
# [24] = target: GlcNAc(b1-3)Gal(b1-4)GlcNAc(b1-3)Gal(b1-4)GlcNAc(b1-3)Gal(b1-4)GlcNAc(b1-2)Man(a1-3)[GlcNAc(b1-3)Gal(b1-4)GlcNAc(b1-3)Gal(b1-4)GlcNAc(b1-3)Gal(b1-4)GlcNAc(b1-2)Man(a1-6)]Man(b1-4)GlcNAc(b1-4)[Fuc(a1-6)]GlcNAc
# Summary of the method: as §1
# [25] = target: GlcNAc(b1-3)Gal(b1-4)GlcNAc(b1-3)Gal(b1-4)GlcNAc(b1-3)Gal(b1-4)GlcNAc(b1-2)[GlcNAc(b1-3)Gal(b1-4)GlcNAc(b1-3)Gal(b1-4)GlcNAc(b1-3)Gal(b1-4)GlcNAc(b1-6)]Man(a1-6)[GlcNAc(b1-3)Gal(b1-4)GlcNAc(b1-3)Gal(b1-4)GlcNAc(b1-3)Gal(b1-4)GlcNAc(b1-2)Man(a1-3)]Man(b1-4)GlcNAc(b1-4)[Fuc(a1-6)]GlcNAc
# Summary of the method: as §1
# [26] = target: GlcNAc(b1-3)Gal(b1-4)GlcNAc(b1-3)Gal(b1-4)GlcNAc(b1-3)Gal(b1-4)GlcNAc(b1-3)Gal(b1-4)GlcNAc(b1-2)Man(a1-3)[GlcNAc(b1-3)Gal(b1-4)GlcNAc(b1-3)Gal(b1-4)GlcNAc(b1-3)Gal(b1-4)GlcNAc(b1-3)Gal(b1-4)GlcNAc(b1-2)Man(a1-6)]Man(b1-4)GlcNAc(b1-4)GlcNAc
# Summary of the method: as §1
# [27] = target: GlcNAc(b1-3)Gal(b1-4)GlcNAc(b1-3)Gal(b1-4)GlcNAc(b1-3)Gal(b1-4)GlcNAc(b1-3)Gal(b1-4)GlcNAc(b1-2)Man(a1-3)[GlcNAc(b1-3)Gal(b1-4)GlcNAc(b1-3)Gal(b1-4)GlcNAc(b1-3)Gal(b1-4)GlcNAc(b1-3)Gal(b1-4)GlcNAc(b1-2)Man(a1-6)]Man(b1-4)GlcNAc(b1-4)[Fuc(a1-6)]GlcNAc
# Summary of the method: as §1
# [28] = target: GlcNAc(b1-3)Gal(b1-4)GlcNAc(b1-3)Gal(b1-4)GlcNAc(b1-3)Gal(b1-4)GlcNAc(b1-3)Gal(b1-4)GlcNAc(b1-2)[GlcNAc(b1-3)Gal(b1-4)GlcNAc(b1-3)Gal(b1-4)GlcNAc(b1-3)Gal(b1-4)GlcNAc(b1-3)Gal(b1-4)GlcNAc(b1-6)]Man(a1-6)[GlcNAc(b1-3)Gal(b1-4)GlcNAc(b1-3)Gal(b1-4)GlcNAc(b1-3)Gal(b1-4)GlcNAc(b1-3)Gal(b1-4)GlcNAc(b1-2)Man(a1-3)]Man(b1-4)GlcNAc(b1-4)[Fuc(a1-6)]GlcNAc
# Summary of the method: as §1
# [29] = target: GlcNAc(b1-3)Gal(b1-4)GlcNAc(b1-3)Gal(b1-4)GlcNAc(b1-3)GalNAc
# Summary of the method: as §1
# [30] = target: GlcNAc(b1-3)Gal(b1-4)GlcNAc(b1-3)GalNAc
# Summary of the method: as §1
# [31] = target: GlcNAc(b1-3)Gal(b1-4)GlcNAc(b1-3)[GlcNAc(b1-3)Gal(b1-4)GlcNAc(b1-3)]GalNAc
# Summary of the method: as §1
# [32] = target: GlcNAc(b1-3)Gal(b1-4)GlcNAc(b1-6)[Gal(b1-3)]GalNAc
# Summary of the method: as §1
# [33] = target: GlcNAc(b1-3)Gal(b1-4)GlcNAc(b1-6)[GlcNAc(b1-3)Gal(b1-3)]GalNAc
# Summary of the method: as §1
# [34] = target: GlcNAc(b1-3)Gal(b1-4)GlcNAc(b1-6)[GlcNAc(b1-3)]Gal(b1-4)GlcNAc
# Summary of the method: as §1
binder,measurement,setting,value
B1,glycan array binding signal (z-score),[1],0.258
same,glycan array binding signal (z-score),[2],-0.399
same,glycan array binding signal (z-score),[3],-0.267
same,glycan array binding signal (z-score),[4],-0.052
same,glycan array binding signal (z-score),[5],-0.238
same,glycan array binding signal (z-score),[6],-0.4
same,glycan array binding signal (z-score),[7],-0.001
same,glycan array binding signal (z-score),[8],-0.683
same,glycan array binding signal (z-score),[9],-0.416
same,glycan array binding signal (z-score),[10],1.43
same,glycan array binding signal (z-score),[11],-0.508
same,glycan array binding signal (z-score),[12],-0.048
same,glycan array binding signal (z-score),[13],-1.37
same,glycan array binding signal (z-score),GlcNAc(b1-3)Fuc,-0.604
same,glycan array binding signal (z-score),GlcNAc(b1-3)Gal,-0.61
same,glycan array binding signal (z-score),[14],-0.123
same,glycan array binding signal (z-score),GlcNAc(b1-3)Gal(b1-4)Glc,-0.331
same,glycan array binding signal (z-score),[15],0.01
same,glycan array binding signal (z-score),[16],-0.041
same,glycan array binding signal (z-score),[17],0.016
same,glycan array binding signal (z-score),[18],0.251
same,glycan array binding signal (z-score),[19],-0.43
same,glycan array binding signal (z-score),[20],-0.033
same,glycan array binding signal (z-score),[21],1.09
same,glycan array binding signal (z-score),[22],3.86
same,glycan array binding signal (z-score),[23],0.826
same,glycan array binding signal (z-score),[24],1.65
same,glycan array binding signal (z-score),[25],3
same,glycan array binding signal (z-score),[26],-0.034
same,glycan array binding signal (z-score),[27],0.18
same,glycan array binding signal (z-score),[28],2.23
same,glycan array binding signal (z-score),[29],0.769
same,glycan array binding signal (z-score),[30],0.255
same,glycan array binding signal (z-score),[31],-0.142
same,glycan array binding signal (z-score),[32],0.62
same,glycan array binding signal (z-score),[33],0.167
same,glycan array binding signal (z-score),[34],-0.086

# Another view of some results above.
binder | measurement | setting | value
B1 | glycan array binding signal (z-score) | [6] | -0.4
same | glycan array binding signal (z-score) | [15] | 0.01
